Binding data for one molecule are collected here from article doi:10.1101/2023.09.14.557851.

For this assay, the target named is T1, human β-glucocerebrosidase (human) (UniProt P04062).
T1 sequence: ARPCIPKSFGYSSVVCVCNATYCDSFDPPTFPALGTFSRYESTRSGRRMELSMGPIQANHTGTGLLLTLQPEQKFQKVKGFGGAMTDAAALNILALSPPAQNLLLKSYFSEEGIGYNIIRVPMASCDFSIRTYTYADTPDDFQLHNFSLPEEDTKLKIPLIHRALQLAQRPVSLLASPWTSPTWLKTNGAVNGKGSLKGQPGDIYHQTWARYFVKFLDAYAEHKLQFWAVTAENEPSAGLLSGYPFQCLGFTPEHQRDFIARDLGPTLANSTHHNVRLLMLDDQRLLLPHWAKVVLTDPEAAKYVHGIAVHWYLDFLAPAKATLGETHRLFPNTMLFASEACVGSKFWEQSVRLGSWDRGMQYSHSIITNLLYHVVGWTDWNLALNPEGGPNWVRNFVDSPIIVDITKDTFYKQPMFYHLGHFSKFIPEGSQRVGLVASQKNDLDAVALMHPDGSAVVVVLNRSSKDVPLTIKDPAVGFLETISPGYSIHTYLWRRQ
The assay is described as follows: co-IP; hGCase in GBA1+/+ and GBA1-/- human neuron lysates immunocaptured with hGCase-1/23 on Protein A Dynabeads (1 hour at RT); LIMP2 in the co-precipitates detected with a LIMP2 antibody.

These are yes or no findings as the source states them, for the method shown. In cells and extracts the contact can be indirect. Some entries that bind do so weakly or less than the wild type. Sequences can lack the tags named with a protein.

B1: lysosomal integral membrane protein-2 (receptor, UniProt Q14108 1-478)
chain: MGRCCFYTAGTLSLLLLVTSVTLLVARVFQKAVDQSIEKKIVLRNGTEAFDSWEKPPLPVYTQFYFFNVTNPEEILRGETPRVEEVGPYTYRELRNKANIQFGDNGTTISAVSNKAYVFERDQSVGDPKIDLIRTLNIPVLTVIEWSQVHFLREIIEAMLKAYQQKLFVTHTVDELLWGYKDEILSLIHVFRPDISPYFGLFYEKNGTNDGDYVFLTGEDSYLNFTKIVEWNGKTSLDWWITDKCNMINGTDGDSFHPLITKDEVLYVFPSDFCRSVYITFSDYESVQGLPAFRYKVPAEILANTSDNAGFCIPEGNCLGSGVLNVSICKNGAPIIMSFPHFYQADERFVSAIEGMHPNQEDHETFVDINPLTGIILKAAKRFQINIYVKKLDDFVETGDIRTMVFPVMYLNESVHIDKETASRLKSMINTTLIITNIPYIIMALGVFFGLVFTWLACKGQGSMDEGTADERAPLIRT
For the molecule B1, the binding entry was “binds”.
